The other results are listed elsewhere or left out. Residues, ends and D or L forms follow the SMILES beside them. *: point of attachment. Cbz = O=C(OCc1ccccc1)*
Legend:
Test in all cases: log2 fold change, soluble protein after heating vs DMSO (PISA); higher = thermal stabilisation; K562 cells, 10 uM, 30 min; active = over 0.2 and 3.5 SD of the protein, either way, in both replicates (recomputed)
[1] = compound: C1COCCN1CCN2C3=CC=CC=C3N=C2NC(=O)C4=CC(=CC=C4)[N+](=O)[O-] [IRAK-1-4 Inhibitor I]
Summary of the method: (§1)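 Values are thermal stability changes relative to control samples and are taken from duplicates. They are stated as log2 fold changes. Before quantification by TMTpro 16plex LC-MS/MS with equalised channel sums, K562 cells at 2×10^6 cells/mL were treated with 10 μM compound for 30 min, heated in aliquots for 3 min across 48°C-58°C, pooled, extracted in PBS with 0.5% NP-40 at 4°C, and centrifuged at 21,000xg for 90 min to give the soluble supernatant.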

Chains of the proteins cited; added tags and fusions are not shown. Lines headed by an entry give the natural chain unless they say otherwise; changes in a name come on top.
UniProt Q9UFC0: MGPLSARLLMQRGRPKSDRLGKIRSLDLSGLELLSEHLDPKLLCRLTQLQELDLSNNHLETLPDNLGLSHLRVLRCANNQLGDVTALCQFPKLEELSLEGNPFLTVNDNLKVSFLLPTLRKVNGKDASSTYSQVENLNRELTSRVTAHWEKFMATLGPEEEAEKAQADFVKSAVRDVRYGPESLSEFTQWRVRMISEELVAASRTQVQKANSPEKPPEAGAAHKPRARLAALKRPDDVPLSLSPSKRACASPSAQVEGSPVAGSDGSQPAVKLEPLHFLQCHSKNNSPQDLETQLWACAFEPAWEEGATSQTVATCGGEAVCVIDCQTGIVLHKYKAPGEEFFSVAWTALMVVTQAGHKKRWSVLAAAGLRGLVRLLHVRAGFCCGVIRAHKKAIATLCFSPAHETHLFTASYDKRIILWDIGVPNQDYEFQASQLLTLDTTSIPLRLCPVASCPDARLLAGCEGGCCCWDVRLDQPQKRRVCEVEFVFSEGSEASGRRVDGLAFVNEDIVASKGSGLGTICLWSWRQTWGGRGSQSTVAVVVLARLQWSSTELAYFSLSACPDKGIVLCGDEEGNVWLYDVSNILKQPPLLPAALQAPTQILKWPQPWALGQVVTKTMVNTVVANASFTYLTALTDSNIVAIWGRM
UniProt Q8IV50: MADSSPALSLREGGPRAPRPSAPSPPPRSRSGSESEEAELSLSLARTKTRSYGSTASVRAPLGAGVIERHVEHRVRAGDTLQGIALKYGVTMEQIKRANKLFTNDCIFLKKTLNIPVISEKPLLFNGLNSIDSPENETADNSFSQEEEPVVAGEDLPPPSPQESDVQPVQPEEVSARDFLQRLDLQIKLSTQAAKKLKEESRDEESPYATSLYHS
UniProt Q9BX40: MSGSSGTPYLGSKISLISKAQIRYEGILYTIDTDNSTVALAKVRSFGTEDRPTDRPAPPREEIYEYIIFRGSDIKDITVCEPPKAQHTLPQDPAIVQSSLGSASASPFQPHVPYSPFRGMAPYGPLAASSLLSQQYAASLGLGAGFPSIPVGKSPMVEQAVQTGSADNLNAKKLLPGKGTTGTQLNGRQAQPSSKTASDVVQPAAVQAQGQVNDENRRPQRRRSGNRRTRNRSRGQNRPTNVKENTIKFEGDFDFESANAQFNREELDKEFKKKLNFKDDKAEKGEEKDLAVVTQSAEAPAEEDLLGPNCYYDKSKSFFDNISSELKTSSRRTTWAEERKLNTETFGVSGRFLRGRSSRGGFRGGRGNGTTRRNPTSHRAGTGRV
UniProt P12980: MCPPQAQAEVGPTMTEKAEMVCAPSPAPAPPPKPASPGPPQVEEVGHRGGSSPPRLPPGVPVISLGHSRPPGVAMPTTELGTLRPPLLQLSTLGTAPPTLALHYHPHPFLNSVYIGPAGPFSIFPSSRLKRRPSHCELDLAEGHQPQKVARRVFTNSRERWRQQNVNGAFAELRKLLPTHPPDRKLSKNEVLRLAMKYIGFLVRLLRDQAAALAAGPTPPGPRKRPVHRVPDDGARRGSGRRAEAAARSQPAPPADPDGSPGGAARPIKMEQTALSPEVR
UniProt P09960: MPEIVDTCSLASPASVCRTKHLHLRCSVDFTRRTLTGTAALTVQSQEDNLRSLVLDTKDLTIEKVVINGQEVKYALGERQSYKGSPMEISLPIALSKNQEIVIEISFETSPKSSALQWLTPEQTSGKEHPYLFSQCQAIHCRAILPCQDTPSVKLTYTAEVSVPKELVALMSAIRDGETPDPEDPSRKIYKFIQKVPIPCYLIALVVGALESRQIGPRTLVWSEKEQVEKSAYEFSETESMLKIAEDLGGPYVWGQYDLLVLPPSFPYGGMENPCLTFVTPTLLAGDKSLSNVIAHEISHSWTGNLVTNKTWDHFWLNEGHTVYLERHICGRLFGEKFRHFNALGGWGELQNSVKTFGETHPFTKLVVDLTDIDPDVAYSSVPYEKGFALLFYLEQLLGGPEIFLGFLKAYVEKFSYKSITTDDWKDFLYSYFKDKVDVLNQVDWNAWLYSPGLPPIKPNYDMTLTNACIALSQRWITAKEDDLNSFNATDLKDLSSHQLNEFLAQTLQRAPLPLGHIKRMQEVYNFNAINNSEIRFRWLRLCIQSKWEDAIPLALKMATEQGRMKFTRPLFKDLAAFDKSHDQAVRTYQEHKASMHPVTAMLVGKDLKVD
UniProt Q96S90: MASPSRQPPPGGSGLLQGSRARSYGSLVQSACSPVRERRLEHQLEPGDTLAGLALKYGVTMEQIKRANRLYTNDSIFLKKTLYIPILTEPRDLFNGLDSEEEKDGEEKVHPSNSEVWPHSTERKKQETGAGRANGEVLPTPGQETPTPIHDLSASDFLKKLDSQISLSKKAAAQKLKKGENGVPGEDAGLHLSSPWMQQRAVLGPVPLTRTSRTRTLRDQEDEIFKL
UniProt Q8WZA0: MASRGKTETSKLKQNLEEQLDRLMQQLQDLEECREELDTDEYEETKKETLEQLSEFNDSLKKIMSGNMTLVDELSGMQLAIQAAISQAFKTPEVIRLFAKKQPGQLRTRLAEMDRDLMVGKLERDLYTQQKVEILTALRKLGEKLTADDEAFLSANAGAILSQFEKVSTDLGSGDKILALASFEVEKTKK
UniProt Q9UNF1: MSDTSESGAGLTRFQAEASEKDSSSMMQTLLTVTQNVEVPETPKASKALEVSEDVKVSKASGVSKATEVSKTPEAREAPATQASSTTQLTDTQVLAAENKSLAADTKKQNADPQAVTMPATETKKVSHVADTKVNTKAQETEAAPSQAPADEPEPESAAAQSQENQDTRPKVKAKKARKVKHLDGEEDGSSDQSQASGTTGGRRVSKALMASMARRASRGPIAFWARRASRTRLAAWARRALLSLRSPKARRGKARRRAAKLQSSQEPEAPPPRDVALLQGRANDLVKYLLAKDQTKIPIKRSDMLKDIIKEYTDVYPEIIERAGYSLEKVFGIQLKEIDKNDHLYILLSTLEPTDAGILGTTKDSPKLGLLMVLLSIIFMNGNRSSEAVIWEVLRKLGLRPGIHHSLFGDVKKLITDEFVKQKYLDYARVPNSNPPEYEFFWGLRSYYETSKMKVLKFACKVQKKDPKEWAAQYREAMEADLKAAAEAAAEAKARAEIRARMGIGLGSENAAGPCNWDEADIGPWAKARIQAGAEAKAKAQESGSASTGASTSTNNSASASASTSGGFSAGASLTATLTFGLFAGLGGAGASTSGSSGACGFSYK
UniProt Q66K74: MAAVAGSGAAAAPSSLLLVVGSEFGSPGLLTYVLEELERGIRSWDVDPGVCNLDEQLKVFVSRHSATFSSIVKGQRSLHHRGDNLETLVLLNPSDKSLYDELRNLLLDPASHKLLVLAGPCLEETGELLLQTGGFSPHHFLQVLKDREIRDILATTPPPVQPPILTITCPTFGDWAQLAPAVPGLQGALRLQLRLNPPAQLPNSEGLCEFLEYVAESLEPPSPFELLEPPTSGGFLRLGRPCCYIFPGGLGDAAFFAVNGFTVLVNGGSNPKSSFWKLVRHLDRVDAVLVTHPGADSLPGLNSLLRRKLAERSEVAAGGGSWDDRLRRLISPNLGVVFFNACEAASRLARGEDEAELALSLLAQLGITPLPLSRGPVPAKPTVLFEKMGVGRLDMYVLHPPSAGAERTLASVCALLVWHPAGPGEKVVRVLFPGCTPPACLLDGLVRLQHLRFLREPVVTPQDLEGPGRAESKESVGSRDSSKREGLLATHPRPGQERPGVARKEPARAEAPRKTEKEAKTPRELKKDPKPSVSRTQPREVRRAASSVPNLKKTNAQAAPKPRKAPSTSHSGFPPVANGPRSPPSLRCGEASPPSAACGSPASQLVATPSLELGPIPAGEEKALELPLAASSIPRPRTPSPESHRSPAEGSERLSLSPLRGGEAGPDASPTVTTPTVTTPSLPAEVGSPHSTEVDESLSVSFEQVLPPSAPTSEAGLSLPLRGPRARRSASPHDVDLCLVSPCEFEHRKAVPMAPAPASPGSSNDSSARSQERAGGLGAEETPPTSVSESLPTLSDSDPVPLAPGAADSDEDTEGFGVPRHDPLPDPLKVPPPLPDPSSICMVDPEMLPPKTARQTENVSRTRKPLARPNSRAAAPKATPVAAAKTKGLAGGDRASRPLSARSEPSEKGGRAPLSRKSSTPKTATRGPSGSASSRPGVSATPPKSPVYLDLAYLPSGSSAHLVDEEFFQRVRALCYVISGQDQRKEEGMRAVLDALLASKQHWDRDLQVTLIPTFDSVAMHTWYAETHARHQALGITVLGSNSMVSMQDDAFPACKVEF
UniProt Q7Z3D4: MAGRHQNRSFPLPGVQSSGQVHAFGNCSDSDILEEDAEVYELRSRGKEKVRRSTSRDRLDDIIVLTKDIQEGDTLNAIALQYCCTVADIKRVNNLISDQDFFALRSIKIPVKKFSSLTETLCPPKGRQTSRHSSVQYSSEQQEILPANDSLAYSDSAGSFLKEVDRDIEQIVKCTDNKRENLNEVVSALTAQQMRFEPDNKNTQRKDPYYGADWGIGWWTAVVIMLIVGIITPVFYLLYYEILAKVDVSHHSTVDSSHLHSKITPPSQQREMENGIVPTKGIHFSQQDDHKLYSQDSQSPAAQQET
UniProt Q5SRI9: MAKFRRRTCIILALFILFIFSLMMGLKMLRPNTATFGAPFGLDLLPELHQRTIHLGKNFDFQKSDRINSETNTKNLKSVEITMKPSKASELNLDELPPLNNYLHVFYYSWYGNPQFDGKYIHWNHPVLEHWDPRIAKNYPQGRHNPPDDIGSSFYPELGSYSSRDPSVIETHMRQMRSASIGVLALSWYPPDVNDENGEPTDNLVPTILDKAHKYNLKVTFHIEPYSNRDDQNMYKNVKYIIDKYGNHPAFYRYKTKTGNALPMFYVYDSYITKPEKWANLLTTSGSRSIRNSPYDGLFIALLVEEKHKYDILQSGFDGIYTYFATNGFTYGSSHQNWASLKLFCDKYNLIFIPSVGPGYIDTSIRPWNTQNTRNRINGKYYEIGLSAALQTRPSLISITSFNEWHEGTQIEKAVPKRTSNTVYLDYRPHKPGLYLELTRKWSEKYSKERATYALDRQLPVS
UniProt O15116: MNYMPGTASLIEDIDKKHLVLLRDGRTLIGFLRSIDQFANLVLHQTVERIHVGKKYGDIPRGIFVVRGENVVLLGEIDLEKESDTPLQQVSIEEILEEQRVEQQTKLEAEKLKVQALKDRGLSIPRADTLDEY
UniProt Q3MHD2: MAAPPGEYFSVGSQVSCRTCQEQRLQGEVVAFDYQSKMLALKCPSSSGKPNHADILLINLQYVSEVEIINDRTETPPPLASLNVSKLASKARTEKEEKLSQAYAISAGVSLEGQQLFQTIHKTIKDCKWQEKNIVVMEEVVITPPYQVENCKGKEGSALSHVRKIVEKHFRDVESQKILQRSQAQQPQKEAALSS
UniProt Q8ND56: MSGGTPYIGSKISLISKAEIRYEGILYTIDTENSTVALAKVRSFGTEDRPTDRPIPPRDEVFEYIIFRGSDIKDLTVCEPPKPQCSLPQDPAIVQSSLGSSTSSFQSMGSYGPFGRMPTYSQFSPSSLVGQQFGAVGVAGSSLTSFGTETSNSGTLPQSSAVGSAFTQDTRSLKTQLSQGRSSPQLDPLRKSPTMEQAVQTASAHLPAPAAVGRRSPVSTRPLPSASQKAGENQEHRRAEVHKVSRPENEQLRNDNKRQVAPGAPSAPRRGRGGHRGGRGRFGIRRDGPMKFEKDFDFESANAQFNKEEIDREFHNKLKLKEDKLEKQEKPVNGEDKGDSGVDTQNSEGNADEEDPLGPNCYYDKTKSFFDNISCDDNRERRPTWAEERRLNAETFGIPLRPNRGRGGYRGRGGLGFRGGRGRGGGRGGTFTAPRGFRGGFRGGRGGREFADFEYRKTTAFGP
UniProt Q5VWZ2: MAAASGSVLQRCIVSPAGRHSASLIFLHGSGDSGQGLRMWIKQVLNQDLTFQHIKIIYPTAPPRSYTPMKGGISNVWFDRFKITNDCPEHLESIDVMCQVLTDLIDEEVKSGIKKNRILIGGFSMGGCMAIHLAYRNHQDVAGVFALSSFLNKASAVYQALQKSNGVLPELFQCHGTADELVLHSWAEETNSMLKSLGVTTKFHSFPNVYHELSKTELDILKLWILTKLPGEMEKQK

[2] = compound: C=CC(=O)N1CCC[C@@H](n2nc(-c3ccc(Oc4ccccc4)cc3)c3c(N)ncnc32)C1 [ibrutinib]
Summary of the method: as §1

[3] = compound: CC(=O)c1cnc2ccc(-c3cc(Cl)c(O)c(Cl)c3)nc2c1N[C@H]1CC[C@H](CN(C)C)CC1
Summary of the method: as §1

[4] = compound: CC(C)(C)Cn1c(N)nc2ccc(-c3[nH]c(C(C)(C)C)nc3-c3ccc(F)cc3)nc21 [ralimetinib]
Summary of the method: as §1

[5] = compound: CC(C)(O)CC(=O)NCCn1ccc2ncnc(Nc3ccc(Oc4cccc(C(F)(F)F)c4)c(Cl)c3)c21
Summary of the method: as §1

[6] = compound: CC(C)C1=C2N=C(C=C(N2N=C1)NCC3=CC=CC=C3)NCCCCCCN
Summary of the method: as §1

[7] = compound: CC(C)C[C@@H](C=O)NC(=O)[C@H](CC(C)C)NC(=O)[C@H](CC(C)C)NC(=O)OCc1ccccc1
Summary of the method: as §1

[8] = compound: CC(C)N(C[C@H]1O[C@@H](n2cnc3c(N)ncnc32)[C@H](O)[C@@H]1O)[C@H]1C[C@@H](CCc2nc3cc(C(C)(C)C)ccc3[nH]2)C1 [pinometostat]
Summary of the method: as §1

[9] = compound: CC1=C(C(CC(=O)N1)C2=CC=C(C=C2)C(F)(F)F)C(=O)NC3=C(C=C4C(=C3)C=NN4)F
Summary of the method: as §1

[10] = compound: CC1=C(C2=C(C=C1)C(=O)C3=CC=CC=C3N2CCCN)C
Summary of the method: as §1

[11] = compound: CC1=C(C=C(C=C1)NC(=O)C2=CC(=CC=C2)C(C)(C)C#N)NC3=CC4=C(C=C3)N=CN(C4=O)C
Summary of the method: as §1

[12] = compound: CC1=C(C=C(C=C1)NC(=O)C2=CC(=CC=C2)N(C)C)NC(=O)C3=CC=C(C=C3)O
Summary of the method: as §1

[13] = compound: CC1=CC=C(C=C1)SC2=C3C=C(SC3=CN=C2)C(=O)N
Summary of the method: as §1

[14] = compound: CC1=NC(=CC=C1)C2=C(N=C(N2)C(C)(C)C)C3=CC4=NC=CN=C4C=C3
Summary of the method: as §1

[15] = compound: CCCCN(Cc1ccc(C(=O)NO)cc1)C(=O)Nc1ccccc1 [Nexturastat A]
Summary of the method: as §1

[16] = compound: CCCS(=O)(=O)Nc1ccc(F)c(C(=O)c2c[nH]c3ncc(-c4ccc(Cl)cc4)cc23)c1F [vemurafenib]
Summary of the method: as §1

[17] = compound: CCCS(=O)(=O)Nc1ccc(F)c(C(=O)c2c[nH]c3ncc(Cl)cc23)c1F
Summary of the method: as §1

[18] = compound: CCCc1cc(C)[nH]c(=O)c1CNC(=O)c1cc(-c2ccnc(N3CCN(C)CC3)c2)cc2c1cnn2C(C)C
Summary of the method: as §1

[19] = compound: CCN(CC)Cc1ccc2cc(COC(=O)Nc3ccc(C(=O)NO)cc3)ccc2c1 [givinostat]
Summary of the method: as §1

[20] = compound: CCN(CCCOc1ccc2c(Nc3cc(CC(=O)Nc4cccc(F)c4)[nH]n3)ncnc2c1)CCOP(=O)(O)O [barasertib]
Summary of the method: as §1

Measured: log2 fold change

LRWD1 (UniProt Q9UFC0)
inactive: [1] -0.148 | [2] 0.059 | [3] -0.09 | [4] 0.057 | [5] -0.374 | [6] -0.089 | [7] -0.001 | [8] 0.044 | [9] 0.022 | [10] 0.052 | [11] 0.112 | [12] -0.11 | [13] 0.066 | [14] 0.189 | [15] 0.03 | [16] 0.112 | [17] 0.223 | [18] 0.123 | [19] 0.201 | [20] 0.095

LYSMD2 (UniProt Q8IV50)
inactive: [1] 0.032 | [2] -0.011 | [3] -0.086 | [4] -0.048 | [5] 0.039 | [6] 0.042 | [7] 0.023 | [8] -0.045 | [9] 0.023 | [10] -0.035 | [11] -0.077 | [12] 0.006 | [13] -0.02 | [14] -0.02 | [15] -0.012 | [16] -0.033 | [17] -0.027 | [18] -0.055 | [19] -0.047 | [20] 0.026

LSM14B (UniProt Q9BX40)
inactive: [1] -0.082 | [2] 0.04 | [3] -0.091 | [4] 0.114 | [5] 0.041 | [6] -0.082 | [7] 0.105 | [8] 0.123 | [9] -0.003 | [10] -0.027 | [11] 0.036 | [12] 0 | [13] -0.005 | [14] -0.024 | [15] 0.125 | [16] -0.019 | [17] 0.042 | [18] 0.08 | [19] 0.1 | [20] 0.034

LYL1 (UniProt P12980)
inactive: [1] 0.271 | [2] 0.032 | [3] -0.186 | [4] 0.05 | [5] -0.085 | [6] 0.016 | [7] 0.187 | [8] -0.056 | [9] 0.043 | [10] 0.061 | [11] -0.002 | [12] 0.001 | [13] 0.114 | [14] -0.171 | [15] -0.099 | [16] -0.187 | [17] 0.015 | [18] 0.165 | [19] -0.035 | [20] 0.018

LTA4H (UniProt P09960)
inactive: [1] -0.014 | [2] -0.017 | [3] 0.029 | [4] -0.037 | [5] -0.028 | [6] -0.005 | [7] -0.037 | [8] -0.042 | [9] -0.017 | [10] 0.081 | [11] 0.018 | [12] 0.001 | [13] 0.132 | [14] 0.01 | [15] -0.082 | [16] 0.027 | [17] 0.078 | [18] -0.011 | [19] 0.022 | [20] 0.003

MAK16 (UniProt Q9BXY0)
inactive: [1] -0.319 | [2] -0.016 | [3] 0.064 | [4] 0.086 | [5] 0.069 | [6] -0.07 | [7] 0.004 | [8] 0.068 | [9] -0.011 | [10] -0.073 | [11] 0.042 | [12] -0.005 | [13] -0.001 | [14] -0.044 | [15] 0.044 | [16] -0.049 | [17] 0.007 | [18] 0.016 | [19] -0.098 | [20] -0.099

LYSMD1 (UniProt Q96S90)
inactive: [1] 0.008 | [2] -0.015 | [3] -0.044 | [4] 0.03 | [5] -0.006 | [6] 0.004 | [7] 0.122 | [8] -0.051 | [9] -0.009 | [10] -0.03 | [11] 0.031 | [12] 0.032 | [13] 0.015 | [14] 0.029 | [15] 0.05 | [16] 0.034 | [17] 0.059 | [18] -0.084 | [19] 0.005 | [20] 0.01

LZIC isoform 2 (UniProt Q8WZA0)
inactive: [1] 0.016 | [2] 0.016 | [3] 0.009 | [4] -0.056 | [5] -0.014 | [6] 0.065 | [7] 0.067 | [8] -0.066 | [9] -0.008 | [10] -0.007 | [11] -0.057 | [12] 0.025 | [13] -0.008 | [14] 0.027 | [15] -0.055 | [16] -0.013 | [17] -0.086 | [18] -0.027 | [19] -0.023 | [20] 0.003

MAGED2 (UniProt Q9UNF1)
inactive: [1] -0.084 | [2] 0.065 | [3] 0.04 | [4] 0.077 | [5] -0.129 | [6] 0.126 | [7] 0.213 | [8] 0.18 | [9] 0.208 | [10] 0.08 | [11] -0.186 | [12] 0.05 | [13] 0.016 | [14] -0.049 | [15] 0.305 | [16] 0.025 | [17] -0.012 | [18] 0.243 | [19] 0.405 | [20] 0.049

MAP1S (UniProt Q66K74)
inactive: [1] -0.075 | [2] -0.012 | [3] 0.062 | [4] 0.032 | [5] -0.009 | [6] -0.037 | [7] 0.044 | [8] 0.051 | [9] -0.05 | [10] -0.033 | [11] -0.01 | [12] -0.012 | [13] 0.034 | [14] 0.036 | [15] 0.047 | [16] 0.017 | [17] 0.023 | [18] 0.081 | [19] 0.033 | [20] 0.002

LYSMD3 (UniProt Q7Z3D4)
inactive: [1] -0.006 | [2] 0.047 | [3] 0.047 | [4] -0.179 | [5] 0.189 | [6] 0.129 | [7] 0.069 | [8] 0.006 | [9] 0.043 | [10] 0.055 | [11] 0.008 | [12] 0.034 | [13] 0.052 | [14] -0.003 | [15] -0.091 | [16] -0.007 | [17] 0.19 | [18] -0.062 | [19] -0.031 | [20] -0.038

MANEA (UniProt Q5SRI9)
inactive: [1] 0.02 | [2] 0.055 | [3] 0.026 | [4] 0.099 | [5] -0.06 | [6] 0.11 | [7] -0.004 | [8] -0.054 | [9] -0.059 | [10] -0.043 | [11] 0.039 | [12] 0.025 | [13] 0.011 | [14] 0.071 | [15] -0.025 | [16] -0.021 | [17] -0.003 | [18] -0.296 | [19] 0.005 | [20] -0.159

LSM1 (UniProt O15116)
inactive: [1] 0.018 | [2] 0.025 | [3] -0.049 | [4] -0.165 | [5] 0.024 | [6] 0.053 | [7] -0.067 | [8] -0.069 | [9] -0.012 | [10] 0.146 | [11] -0.013 | [12] -0.063 | [13] 0.018 | [14] 0.07 | [15] -0.002 | [16] 0.05 | [17] -0.041 | [18] -0.06 | [19] 0.006 | [20] 0.031

LSM12 isoform 2 (UniProt Q3MHD2)
inactive: [1] -0.038 | [2] -0.034 | [3] -0.024 | [4] 0.072 | [5] -0.009 | [6] 0.055 | [7] 0.026 | [8] 0.039 | [9] -0.044 | [10] 0.058 | [11] 0.004 | [12] -0.002 | [13] 0.003 | [14] 0.015 | [15] 0.077 | [16] 0.053 | [17] 0.046 | [18] 0.03 | [19] 0.052 | [20] 0.022

Reprinted at random: 2 records from the list.
LSM1 (UniProt O15116)
inactive: [1] 0.018 | [2] 0.025 | [3] -0.049 | [4] -0.165 | [5] 0.024 | [6] 0.053 | [7] -0.067 | [8] -0.069 | [9] -0.012 | [10] 0.146 | [11] -0.013 | [12] -0.063 | [13] 0.018 | [14] 0.07 | [15] -0.002 | [16] 0.05 | [17] -0.041 | [18] -0.06 | [19] 0.006 | [20] 0.031

LYL1 (UniProt P12980)
inactive: [1] 0.271 | [2] 0.032 | [3] -0.186 | [4] 0.05 | [5] -0.085 | [6] 0.016 | [7] 0.187 | [8] -0.056 | [9] 0.043 | [10] 0.061 | [11] -0.002 | [12] 0.001 | [13] 0.114 | [14] -0.171 | [15] -0.099 | [16] -0.187 | [17] 0.015 | [18] 0.165 | [19] -0.035 | [20] 0.018

Next entries

LSM14A isoform 2 (UniProt Q8ND56)
inactive: [1] -0.046 | [2] 0.021 | [3] 0.009 | [4] -0.017 | [5] 0.028 | [6] -0.016 | [7] 0.062 | [8] 0.09 | [9] 0.011 | [10] 0.167 | [11] -0.017 | [12] -0.04 | [13] 0.04 | [14] 0.05 | [15] 0.016 | [16] -0.024 | [17] 0.005 | [18] -0.015 | [19] 0.052 | [20] 0.024

LYPLAL1 (UniProt Q5VWZ2)
inactive: [1] 0.051 | [2] -0.025 | [3] -0.006 | [4] 0.007 | [5] -0.052 | [6] -0.016 | [7] -0.038 | [8] -0.003 | [9] -0.011 | [10] 0.041 | [11] -0.007 | [12] -0.019 | [13] -0.016 | [14] 0.019 | [15] 0.003 | [16] 0.013 | [17] -0.002 | [18] -0.014 | [19] -0.006 | [20] 0.023

From the supplement of paper PMC10849652
